PubChem BioAssay AID1159578 – Peter MacCallum Cancer Centre – 2015
Shown is one part, drawn at random, of about 18,000 reagents. Of all reagents, about 1,030 (5.7%) were called active. 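Inactive calls also include pools with fewer than 3300 nuclei, whose migration was not assessed.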 Raw values vary from plate to plate and are shown uncorrected. A number with no mark means an inactive call. Further read-outs or replicates are left out here.

Test: 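siRNA pools altering how lymphatic endothelial cells close a scratch wound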 (primary screen)
Cells: human lymphatic endothelial cells
Reagents: siRNA pool against human genes, 40 nM
Time to read-out: 48 h after transfection
Measured: 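High-content imaging of dye-stained cells in a scratch assay measures filled wound area and nuclei per well; duplicate means given as ratio to mock and robust z-score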
Scale: migration robust z-score: higher = faster migration into the scratch; nuclei per well: higher = more cells in the well
Rule for the call: 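Pools averaging fewer than 3300 nuclei are never called; remaining pools count as changed when migration robust z lies outside -2 to 2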
Meaning of the calls: active = migration changed; inactive = no migration change, or too few cells

| Target gene | migration robust z-score | nuclei per well, duplicate mean |
| --- | --- | --- |
| TNP1 (GeneID 7141) | 1.6 | 7485 |
| RPS17P16 (GeneID 402057) | 0.44 | 6186 |
| LPP (GeneID 4026) | 0.52 | 5882 |
| ICA1L (GeneID 130026) | -0.15 | 6557 |
| COX17 (GeneID 10063) | 0.26 | 6066 |
| ZBBX (GeneID 79740) | 1.01 | 5063 |
| PTPRR (GeneID 5801) | -0.03 | 4556 |
| TRIM54 (GeneID 57159) | 0.13 | 5144 |
| PLCG1 (GeneID 5335) | -2.21 (active) | 5078 |
| UVSSA (GeneID 57654) | 0.06 | 4800 |
| NUP160 (GeneID 23279) | -0.31 | 6003 |
| OCIAD2 (GeneID 132299) | -0.12 | 6001 |
| ADGRG3 (GeneID 222487) | -0.96 | 3664 |
| DLL1 (GeneID 28514) | -0.8 | 2964 |
| SH3BP2 (GeneID 6452) | 0.08 | 6228 |
| PSMB8 (GeneID 5696) | -0.62 | 3788 |
| SNAP29 (GeneID 9342) | -0.66 | 5258 |
| DDX28 (GeneID 55794) | 1.06 | 4898 |
| TNNC2 (GeneID 7125) | -0.26 | 7142 |
| NR4A2 (GeneID 4929) | -2.59 | 2682 |
| OTULIN (GeneID 90268) | 0.83 | 5808 |
| CALML3 (GeneID 810) | 0.58 | 5682 |
| HAUS2 (GeneID 55142) | -1.17 | 4892 |
| CELA3A (GeneID 10136) | 0.29 | 5357 |
| PCDHB2 (GeneID 56133) | 0.99 | 6041 |
| CDRT15 (GeneID 146822) | -0.23 | 5418 |
| KCNG3 (GeneID 170850) | 0.57 | 4947 |
| TMEM69 (GeneID 51249) | -0.07 | 4764 |
| ING5 (GeneID 84289) | -1.04 | 5043 |
| SIK1 (GeneID 150094) | 0.42 | 5009 |
| CDC37P1 (GeneID 390688) | 2.12 (active) | 6834 |
| HHLA2 (GeneID 11148) | -0.32 | 5606 |
| GPATCH1 (GeneID 55094) | 0.5 | 5548 |
| KLHL42 (GeneID 57542) | -1.1 | 5467 |
| KAT7 (GeneID 11143) | 0 | 4964 |
| CD226 (GeneID 10666) | -1.76 | 5339 |
| EXOSC5 (GeneID 56915) | 1.38 | 7422 |
| GRIN2D (GeneID 2906) | -0.16 | 5494 |
| CRCT1 (GeneID 54544) | -3.02 (active) | 3696 |
| ZNF317 (GeneID 57693) | -0.58 | 2960 |
| SKA3 (GeneID 221150) | 2.17 (active) | 4048 |
| MIB1 (GeneID 57534) | 1.94 | 4696 |
| COL4A3 (GeneID 1285) | 0.26 | 6570 |
| CCNF (GeneID 899) | -1.22 | 5668 |
| SCGB2B2 (GeneID 284402) | 0.58 | 6384 |
| NPY2R (GeneID 4887) | -1.38 | 6580 |
| TRMT10C (GeneID 54931) | 0.97 | 6718 |
| FGL1 (GeneID 2267) | -0.3 | 4580 |
| OBP2A (GeneID 29991) | -2.4 (active) | 4844 |
| MAFG (GeneID 4097) | 0.05 | 5928 |
| HOXD9 (GeneID 3235) | -1.56 | 3520 |
| ELAVL4 (GeneID 1996) | -1.6 | 5200 |
| SRSF6 (GeneID 6431) | 0.26 | 5416 |
| MAN1B1 (GeneID 11253) | -1.68 | 4175 |
| MEI1 (GeneID 150365) | -0.78 | 6466 |
| TXNIP (GeneID 10628) | -0.47 | 4424 |
| INCENP (GeneID 3619) | 0.46 | 2874 |

Called active, among the entries above:
| Target gene | migration robust z-score | nuclei per well, duplicate mean |
| --- | --- | --- |
| PLCG1 (GeneID 5335) | -2.21 (active) | 5078 |
| CDC37P1 (GeneID 390688) | 2.12 (active) | 6834 |
| CRCT1 (GeneID 54544) | -3.02 (active) | 3696 |
| SKA3 (GeneID 221150) | 2.17 (active) | 4048 |
| OBP2A (GeneID 29991) | -2.4 (active) | 4844 |
